Data on 1 molecule can be found in patent US20070056058A1 (TARGETED GROWTH, published 2007).

The test addresses T1, Arabidopsis cyclin D2;1 (AtcyclinD2;1), FLAG tagged (Arabidopsis) (UniProt P42752).
T1 sequence: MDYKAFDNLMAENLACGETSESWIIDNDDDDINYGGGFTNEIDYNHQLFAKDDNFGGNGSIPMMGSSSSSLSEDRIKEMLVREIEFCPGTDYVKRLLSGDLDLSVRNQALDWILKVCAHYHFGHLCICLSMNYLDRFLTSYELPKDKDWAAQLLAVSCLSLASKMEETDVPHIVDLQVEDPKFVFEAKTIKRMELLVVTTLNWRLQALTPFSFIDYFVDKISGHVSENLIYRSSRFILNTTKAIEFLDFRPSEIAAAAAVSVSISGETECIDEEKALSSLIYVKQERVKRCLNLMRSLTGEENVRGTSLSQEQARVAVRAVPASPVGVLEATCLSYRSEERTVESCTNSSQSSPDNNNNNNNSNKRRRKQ
As to the kind of experiment: in vitro binding, graded (column Cyclin binding).

These are yes or no findings as the source states them, for the method shown. Some results given as binding are weak or reduced against the parent protein; the word gives no strength. Tags and fused reporters may be left off the sequences shown.

B1: BnKRP1 wild type (Brassica napus Krp1), construct BnKrp #461 (other, not shown: small tags and cut ends)
chain: MVRKCRKTKGTVGASSTYMQLRSRRIVYRSEKASSSSSSCCASNNNGVIDLEEERDGETETSSCRRSSKRKLFENLREKESMENSQQIVAGFDSAVKESSDCCCSRRTSLSTTEEKGKSATEQPPTAVEIEDFFVEAEKQLHDNFKKKYNFDFEKEKPLEGRYEWVKL
Take B1: the binding result was “binds”.
